# In all, about 33,000 sequences were measured (“E-score (-0.5 to 0.5)”: median about -8e-05, highest 2% from about 0.23 on). This is one part of the list.
# Molecular target: T1, Nrg2 (UniProt P38082)
# T1 sequence: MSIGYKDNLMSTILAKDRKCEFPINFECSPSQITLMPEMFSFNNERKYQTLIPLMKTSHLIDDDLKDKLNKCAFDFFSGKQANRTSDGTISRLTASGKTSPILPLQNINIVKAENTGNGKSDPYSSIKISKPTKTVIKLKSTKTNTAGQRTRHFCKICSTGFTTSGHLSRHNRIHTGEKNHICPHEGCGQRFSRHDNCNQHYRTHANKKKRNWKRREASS
# Experiment: PBM E-score (8-mer binding enrichment) (E-score (-0.5 to 0.5)); higher = stronger / more preferred TF binding
# Settings: protein concentration: 100 nM; construct: GST-full length
# Procedure, shortened: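 Detection of bound protein used fluorescent anti-GST, with scans normalised by masliner. The proteins were GST-tagged yeast transcription factors applied at about 100-200 nM to universal all-10-mer Agilent arrays made double-stranded by primer extension. Each ungapped eight-base word, pooled with its reverse complement, was scored with an E-score from the Universal PBM Analysis Suite.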
row,Sequence,PBM E-score
1,AAGCGGAG,-0.175
2,CGCACAGA,0.00739
3,CGCGACAG,0.11
4,CTCCGTAA,-0.214
5,CCCATCTC,0.0243
6,TGAACTAA,0.144
7,AATGTACC,-0.264
8,CCTACTCA,0.05
9,CGTTTCCC,-0.106
10,AAGTTATC,0.0623
11,CTCGAGAG,0.00914
12,GGATAACC,-0.141
13,AGAGGGCG,-0.146
14,ACAGTGAA,0.0367
15,GACCTGAC,0.0547
16,CCCAGTAG,-0.132
17,GGCATAAA,0.0686
18,AAAGACAG,0.147
19,GTAGGAGA,-0.205
20,GAGGCCCA,-0.181
21,AGCCCCTA,-0.103
22,GAGATCGC,-0.118
23,ACGGTGAG,-0.00711
24,CCATGGTA,0.117
25,CATCCTGA,0.0368

row,Sequence,PBM E-score
1,CCCCCAAA,-0.375
2,CCTCTGAG,-0.00848
3,TACCGCAA,0.0205
4,ACACGTTG,-0.151
5,ACATCCCC,0.141
6,AGAAACGA,0.159
7,ATGCCCCG,0.0227
8,CCTAAAGA,-0.255
9,GAGATTCA,0.033
10,TGGAAACA,-0.0315
11,ACGAACAC,-0.00267
12,AGTGGCTA,-0.0624
13,GTAATCGA,0.154
14,CAATGACG,-0.232
15,TATTATCA,0.0123
16,AGGCCTTA,-0.154
17,ATGTAAGC,0.176
18,TCTAATCA,0.139
19,CATGCTTA,-0.125
20,AAGCGTCT,-0.22
21,CTACGTAG,-0.103
22,GGATTTTA,-0.084
23,CACCGTAC,0.0768
24,AAATCCTG,0.0103
25,CGGAACTC,-0.045

row,Sequence,PBM E-score
1,CCAGCCGA,-0.127
2,ACTATCAA,0.0835
3,ACAAGCGG,0.208
4,ATCATGAC,0.197
5,ATGAGAAC,0.0898
6,GATGTCAC,0.119
7,ACCGTAAT,-0.039
8,AATAGACC,0.00257
9,AAGATCTT,-0.0257
10,CTCTGCAG,-0.0279
11,CTTTTTAA,-0.163
12,CGGCGTCA,-0.0514
13,CAGGACTA,-0.0199
14,CGATTTCA,-0.059
15,CAACTATG,0.137
16,CCCTTGAC,-0.00413
17,CTCGTTTA,0.0281
18,CGTTTCCA,-0.133
19,ATTTCTCA,0.0394
20,TCAAATAA,0.0394
21,AGGGTATA,0.219
22,ATGGGTTC,-0.0692
23,ACTGTAGA,0.122
24,CAGGTCGC,0.00834
25,CGGGGTAC,-0.17

row,Sequence,PBM E-score
1,CTCCTTTC,-0.117
2,CAGCGTAC,-0.0506
3,AAGCTTTA,0.0329
4,ACACTTCC,0.0362
5,ACCGTGTC,-0.118
6,CCAAGGCA,-0.0373
7,GACCCAAC,0.0918
8,CTCCGGCA,-0.0118
9,GGGTCGAC,0.11
10,AATGTCGC,0.103
11,ATCACTTG,0.00546
12,GCGGGGGA,-0.182
13,GGTCGCAA,0.00495
14,CCATCACC,-0.00416
15,ATATAGGA,0.0162
16,GCCTATCA,0.096
17,ATGTGATC,0.0705
18,CGTATAAA,0.097
19,CTACGCGC,0.16
20,GCGATTGA,0.0715
21,TAAGGCCA,-0.128
22,GCGGTGAC,-0.0442
23,TCTGCGAA,-0.237
24,ACAGTTCT,0.0391
25,CGAGCAAG,-0.0684

row,Sequence,PBM E-score
1,ACGTGTCA,-0.0606
2,CAACGCCG,-0.0413
3,CCACAAGC,-0.208
4,GACTCAGC,-0.114
5,ACTCAGTA,0.166
6,AAGGCACC,-0.0385
7,CTACTCAA,0.126
8,CCGTGTAA,-0.0996
9,CAGCTTTC,-0.114
10,GCGGGGCA,-0.0234
11,AACAGAAG,-0.093
12,GACGACCC,0.14
13,CTGCTCTC,-0.0281
14,GCATCTAC,0.108
15,CGCCGTAC,0.00964
16,ACTCCGAG,0.04
17,GAGGGTAA,-0.125
18,ACCTCGGG,0.00828
19,ACGATTCT,0.0802
20,GTTTTATA,0.0933
21,ACTCAATG,-0.0524
22,GACAGATC,0.19
23,ACAAAACC,0.246
24,CATTTATC,0.0481
25,AACTCCCT,-0.101

# Random excerpt: 7 records from the list
row,Sequence,PBM E-score
16,ACTCCGAG,0.04
13,CTGCTCTC,-0.0281
11,AACAGAAG,-0.093
5,ACTCAGTA,0.166
4,GACTCAGC,-0.114
1,ACGTGTCA,-0.0606
23,ACAAAACC,0.246

# (further entries)

row,Sequence,PBM E-score
1,ACGTGAGT,-0.0537
2,ACTGGGAA,0.0642
3,GAAGTATC,0.209
4,AAGTTATG,0.159
5,ATCTACGA,-0.192
6,CAACCAGG,-0.0897
7,CCGGTAGA,-0.083
8,AATCGCTC,-0.17
9,ACCTATAT,0.236
10,AGAGCACA,0.0882
11,TACGACCA,-0.0683
12,CATTTTAA,0.147
13,CCGCGATA,0.117
14,AGCTCCAG,-0.0523
15,GCCGGTTA,-0.136
16,GCACGAGA,0.0155
17,CACGTGAC,-0.137
18,CAATTAGA,0.145
19,GCTTTTGA,-0.175
20,CATCATGG,0.0628
21,AATAATCA,0.143
22,CTCTTCAC,0.0494
23,CCATCGGC,-0.086
24,AGAGAACT,-0.141
25,ACAGCGTG,-0.0786

row,Sequence,PBM E-score
1,ACTTGGTG,0.0161
2,CCGGTGTC,-0.204
3,GACTTCAA,-0.118
4,CGCACGAA,0.168
5,CAAGTCGA,-0.124
6,AGCCCGAA,-0.0291
7,AAGAGCAG,-0.0544
8,GATCGTCA,-0.121
9,GGTTTATA,0.0316
10,ACTCGGAT,0.0729
11,GCACAACA,0.107
12,TCGCTCCA,-0.0731
13,AAGCTATG,-0.129
14,GGTCGCTA,-0.105
15,AGGACGCA,0.181
16,CCCCGCGG,0.0578
17,ACCACTGC,-0.131
18,GTAGATAA,0.0965
19,TCCTCCGA,-0.284
20,ATATCAGA,0.035
21,TCGCCGAA,-0.124
22,CGTGTTTC,-0.179

# — the supplement of paper PMC3334620
